Test results: publication PMC6639074
These are yes or no findings as the source states them, for the method shown. In cells and extracts the contact can be indirect. These calls come from enrichment with a bait or labelling near it, and not all partners need be listed. For some of these results: Where a sequence is shown, tags or fusion partners need not be part of it. Each block holds one substance with its values, some of them ahead of it.

Sequences of proteins named here, by UniProt entry; tags and fusion partners are left off. A change or cut given only in a name is not applied to a line headed by its entry. A line that says so, or that is headed by a name, gives the form on record, which may keep a tag or linker.
Cdc42(G12V)-BirA*-HA-MAO (P60953, form named): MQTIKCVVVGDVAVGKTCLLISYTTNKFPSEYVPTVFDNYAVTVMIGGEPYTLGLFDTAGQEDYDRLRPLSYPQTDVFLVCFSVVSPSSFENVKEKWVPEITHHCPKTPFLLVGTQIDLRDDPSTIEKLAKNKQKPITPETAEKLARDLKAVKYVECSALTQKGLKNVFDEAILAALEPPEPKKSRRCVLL
Cdc42(T17N)-BirA*-HA-MAO (P60953, form named): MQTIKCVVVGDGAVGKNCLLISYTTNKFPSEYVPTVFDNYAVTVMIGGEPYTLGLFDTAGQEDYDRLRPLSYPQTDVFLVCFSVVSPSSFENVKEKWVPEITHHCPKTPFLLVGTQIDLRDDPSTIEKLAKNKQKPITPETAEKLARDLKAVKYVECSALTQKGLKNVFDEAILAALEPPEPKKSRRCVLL
UniProt Q9NP72: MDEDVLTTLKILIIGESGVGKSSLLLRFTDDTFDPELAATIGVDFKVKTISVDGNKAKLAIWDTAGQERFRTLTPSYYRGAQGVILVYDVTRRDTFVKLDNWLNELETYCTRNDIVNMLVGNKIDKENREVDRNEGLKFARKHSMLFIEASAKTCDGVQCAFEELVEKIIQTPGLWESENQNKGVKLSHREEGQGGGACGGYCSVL
UniProt P61026: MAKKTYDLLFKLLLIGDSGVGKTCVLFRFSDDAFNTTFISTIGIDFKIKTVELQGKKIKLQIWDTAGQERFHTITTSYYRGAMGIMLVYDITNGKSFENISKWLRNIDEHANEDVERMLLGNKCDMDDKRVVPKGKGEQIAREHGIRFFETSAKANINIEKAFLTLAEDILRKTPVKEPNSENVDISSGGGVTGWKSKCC
UniProt P61006: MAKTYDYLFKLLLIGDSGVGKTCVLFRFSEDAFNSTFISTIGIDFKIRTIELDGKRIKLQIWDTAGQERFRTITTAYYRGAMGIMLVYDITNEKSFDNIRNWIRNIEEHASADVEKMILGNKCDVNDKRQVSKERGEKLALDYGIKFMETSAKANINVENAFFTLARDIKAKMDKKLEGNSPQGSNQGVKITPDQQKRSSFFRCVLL
Rab5A(S34N)-BirA*-HA-MAO (P20339, form named): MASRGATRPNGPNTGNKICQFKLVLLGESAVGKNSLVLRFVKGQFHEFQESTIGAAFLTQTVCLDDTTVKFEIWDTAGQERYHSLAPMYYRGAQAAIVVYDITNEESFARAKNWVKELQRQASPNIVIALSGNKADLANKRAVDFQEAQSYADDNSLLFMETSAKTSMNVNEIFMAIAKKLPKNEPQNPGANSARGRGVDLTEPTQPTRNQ
Rab5A(Q79L)-BirA*-HA-MAO (P20339, form named): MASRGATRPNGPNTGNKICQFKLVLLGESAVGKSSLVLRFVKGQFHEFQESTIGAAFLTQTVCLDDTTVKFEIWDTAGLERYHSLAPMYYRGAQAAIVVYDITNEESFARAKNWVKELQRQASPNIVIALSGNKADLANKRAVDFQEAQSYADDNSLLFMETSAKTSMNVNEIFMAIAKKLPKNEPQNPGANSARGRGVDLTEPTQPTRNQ
UniProt P61586: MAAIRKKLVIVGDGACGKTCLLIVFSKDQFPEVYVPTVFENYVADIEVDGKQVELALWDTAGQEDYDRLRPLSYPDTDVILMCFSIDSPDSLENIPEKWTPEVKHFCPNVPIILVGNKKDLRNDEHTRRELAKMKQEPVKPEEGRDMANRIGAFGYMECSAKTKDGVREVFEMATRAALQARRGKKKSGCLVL
UniProt P61019: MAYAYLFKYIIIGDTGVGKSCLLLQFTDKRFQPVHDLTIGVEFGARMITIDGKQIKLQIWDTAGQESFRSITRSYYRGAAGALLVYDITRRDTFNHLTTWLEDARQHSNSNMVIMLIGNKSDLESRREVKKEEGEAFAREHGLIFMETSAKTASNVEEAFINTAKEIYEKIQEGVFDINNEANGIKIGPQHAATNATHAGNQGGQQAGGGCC
UniProt P20340: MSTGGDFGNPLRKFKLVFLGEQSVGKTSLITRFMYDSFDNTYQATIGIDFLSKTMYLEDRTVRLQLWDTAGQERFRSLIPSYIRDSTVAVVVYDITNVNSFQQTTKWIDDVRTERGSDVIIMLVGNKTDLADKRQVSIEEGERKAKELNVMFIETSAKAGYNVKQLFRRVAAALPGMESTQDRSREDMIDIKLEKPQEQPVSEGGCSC
UniProt Q9UJ41: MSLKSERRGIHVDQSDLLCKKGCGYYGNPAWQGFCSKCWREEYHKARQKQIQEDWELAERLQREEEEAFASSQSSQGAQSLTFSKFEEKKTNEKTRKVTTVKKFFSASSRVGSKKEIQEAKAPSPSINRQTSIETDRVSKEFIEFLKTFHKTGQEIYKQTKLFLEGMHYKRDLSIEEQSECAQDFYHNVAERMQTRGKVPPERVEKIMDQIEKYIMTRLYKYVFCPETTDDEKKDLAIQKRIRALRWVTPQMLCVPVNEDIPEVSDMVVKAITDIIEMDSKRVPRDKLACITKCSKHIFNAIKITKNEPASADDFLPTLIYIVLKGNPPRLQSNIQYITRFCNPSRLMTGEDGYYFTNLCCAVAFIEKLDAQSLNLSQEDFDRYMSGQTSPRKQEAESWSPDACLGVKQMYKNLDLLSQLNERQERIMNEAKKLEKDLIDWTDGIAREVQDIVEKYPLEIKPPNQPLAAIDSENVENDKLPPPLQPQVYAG
UniProt Q8TBC3: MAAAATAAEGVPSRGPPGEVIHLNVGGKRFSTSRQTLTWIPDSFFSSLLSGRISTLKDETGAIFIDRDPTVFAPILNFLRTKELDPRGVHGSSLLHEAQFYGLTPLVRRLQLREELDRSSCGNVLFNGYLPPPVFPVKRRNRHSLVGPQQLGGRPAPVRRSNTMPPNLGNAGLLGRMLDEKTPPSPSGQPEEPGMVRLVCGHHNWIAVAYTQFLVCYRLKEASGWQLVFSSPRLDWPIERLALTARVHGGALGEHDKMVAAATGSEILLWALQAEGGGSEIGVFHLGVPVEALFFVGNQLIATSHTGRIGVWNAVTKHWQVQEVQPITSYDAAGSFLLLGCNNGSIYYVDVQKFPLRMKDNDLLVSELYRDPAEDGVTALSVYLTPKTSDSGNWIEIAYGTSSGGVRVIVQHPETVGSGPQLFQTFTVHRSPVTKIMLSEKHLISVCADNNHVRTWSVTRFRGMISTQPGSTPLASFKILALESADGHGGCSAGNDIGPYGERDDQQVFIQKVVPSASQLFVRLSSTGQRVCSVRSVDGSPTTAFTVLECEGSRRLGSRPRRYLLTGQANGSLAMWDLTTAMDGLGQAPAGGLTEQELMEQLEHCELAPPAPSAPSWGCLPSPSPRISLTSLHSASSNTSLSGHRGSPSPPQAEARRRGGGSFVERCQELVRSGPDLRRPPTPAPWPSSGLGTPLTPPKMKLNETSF
UniProt Q15075: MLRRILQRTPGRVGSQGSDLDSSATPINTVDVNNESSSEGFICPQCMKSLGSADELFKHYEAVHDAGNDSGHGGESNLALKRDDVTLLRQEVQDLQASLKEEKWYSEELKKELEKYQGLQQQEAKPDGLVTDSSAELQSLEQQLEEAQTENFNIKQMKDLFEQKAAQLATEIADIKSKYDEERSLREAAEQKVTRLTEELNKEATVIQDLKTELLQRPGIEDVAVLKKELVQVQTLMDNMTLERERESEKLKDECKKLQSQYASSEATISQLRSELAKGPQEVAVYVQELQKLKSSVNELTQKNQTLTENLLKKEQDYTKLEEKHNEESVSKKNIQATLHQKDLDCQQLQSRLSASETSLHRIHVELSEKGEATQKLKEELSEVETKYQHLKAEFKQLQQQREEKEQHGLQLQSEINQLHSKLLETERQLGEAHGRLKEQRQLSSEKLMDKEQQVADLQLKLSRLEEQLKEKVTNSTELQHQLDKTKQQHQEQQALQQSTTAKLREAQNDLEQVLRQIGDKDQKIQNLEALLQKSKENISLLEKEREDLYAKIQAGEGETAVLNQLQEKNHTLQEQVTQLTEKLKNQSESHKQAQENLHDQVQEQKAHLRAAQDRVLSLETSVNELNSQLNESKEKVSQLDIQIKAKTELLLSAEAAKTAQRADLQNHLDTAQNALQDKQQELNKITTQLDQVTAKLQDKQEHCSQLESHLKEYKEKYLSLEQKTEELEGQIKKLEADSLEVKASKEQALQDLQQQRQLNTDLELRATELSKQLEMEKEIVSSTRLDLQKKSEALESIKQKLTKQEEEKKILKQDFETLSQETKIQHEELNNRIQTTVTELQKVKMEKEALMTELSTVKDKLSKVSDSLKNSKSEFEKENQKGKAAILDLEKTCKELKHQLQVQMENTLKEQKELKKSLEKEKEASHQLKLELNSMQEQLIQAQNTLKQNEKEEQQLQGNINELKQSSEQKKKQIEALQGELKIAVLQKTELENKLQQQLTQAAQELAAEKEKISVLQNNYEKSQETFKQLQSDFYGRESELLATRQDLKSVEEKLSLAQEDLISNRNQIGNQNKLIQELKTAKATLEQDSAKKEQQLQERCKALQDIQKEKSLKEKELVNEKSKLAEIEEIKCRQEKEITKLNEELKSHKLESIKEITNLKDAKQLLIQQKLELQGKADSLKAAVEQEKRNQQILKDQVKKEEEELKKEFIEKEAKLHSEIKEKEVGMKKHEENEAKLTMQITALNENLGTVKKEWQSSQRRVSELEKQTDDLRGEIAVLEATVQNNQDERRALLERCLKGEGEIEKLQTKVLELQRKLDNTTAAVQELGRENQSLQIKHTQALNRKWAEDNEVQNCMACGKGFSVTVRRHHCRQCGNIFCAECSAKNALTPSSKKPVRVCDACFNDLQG
UniProt Q7Z3E2: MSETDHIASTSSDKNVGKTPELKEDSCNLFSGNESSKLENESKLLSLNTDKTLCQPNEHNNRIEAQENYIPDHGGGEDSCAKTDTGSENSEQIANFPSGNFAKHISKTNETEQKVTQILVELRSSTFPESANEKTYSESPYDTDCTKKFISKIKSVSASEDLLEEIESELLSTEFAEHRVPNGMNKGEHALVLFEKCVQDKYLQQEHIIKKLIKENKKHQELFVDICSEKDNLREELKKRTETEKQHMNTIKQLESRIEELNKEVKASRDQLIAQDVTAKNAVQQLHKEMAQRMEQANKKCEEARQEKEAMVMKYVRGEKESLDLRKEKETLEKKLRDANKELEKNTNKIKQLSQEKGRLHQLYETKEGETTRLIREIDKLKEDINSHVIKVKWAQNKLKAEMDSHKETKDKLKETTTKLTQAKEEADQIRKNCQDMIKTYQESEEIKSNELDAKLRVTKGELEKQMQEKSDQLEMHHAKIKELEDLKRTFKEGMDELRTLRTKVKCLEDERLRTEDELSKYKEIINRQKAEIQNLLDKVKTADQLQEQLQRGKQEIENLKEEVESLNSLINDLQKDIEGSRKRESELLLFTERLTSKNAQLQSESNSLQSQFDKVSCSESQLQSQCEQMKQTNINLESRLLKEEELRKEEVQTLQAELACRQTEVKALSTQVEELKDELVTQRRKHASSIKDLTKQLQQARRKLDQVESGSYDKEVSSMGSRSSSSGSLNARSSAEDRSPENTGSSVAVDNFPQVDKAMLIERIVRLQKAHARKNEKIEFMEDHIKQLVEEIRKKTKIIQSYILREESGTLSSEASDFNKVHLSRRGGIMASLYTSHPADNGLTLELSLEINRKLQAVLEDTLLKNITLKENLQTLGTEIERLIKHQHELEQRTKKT
UniProt Q8IVH8: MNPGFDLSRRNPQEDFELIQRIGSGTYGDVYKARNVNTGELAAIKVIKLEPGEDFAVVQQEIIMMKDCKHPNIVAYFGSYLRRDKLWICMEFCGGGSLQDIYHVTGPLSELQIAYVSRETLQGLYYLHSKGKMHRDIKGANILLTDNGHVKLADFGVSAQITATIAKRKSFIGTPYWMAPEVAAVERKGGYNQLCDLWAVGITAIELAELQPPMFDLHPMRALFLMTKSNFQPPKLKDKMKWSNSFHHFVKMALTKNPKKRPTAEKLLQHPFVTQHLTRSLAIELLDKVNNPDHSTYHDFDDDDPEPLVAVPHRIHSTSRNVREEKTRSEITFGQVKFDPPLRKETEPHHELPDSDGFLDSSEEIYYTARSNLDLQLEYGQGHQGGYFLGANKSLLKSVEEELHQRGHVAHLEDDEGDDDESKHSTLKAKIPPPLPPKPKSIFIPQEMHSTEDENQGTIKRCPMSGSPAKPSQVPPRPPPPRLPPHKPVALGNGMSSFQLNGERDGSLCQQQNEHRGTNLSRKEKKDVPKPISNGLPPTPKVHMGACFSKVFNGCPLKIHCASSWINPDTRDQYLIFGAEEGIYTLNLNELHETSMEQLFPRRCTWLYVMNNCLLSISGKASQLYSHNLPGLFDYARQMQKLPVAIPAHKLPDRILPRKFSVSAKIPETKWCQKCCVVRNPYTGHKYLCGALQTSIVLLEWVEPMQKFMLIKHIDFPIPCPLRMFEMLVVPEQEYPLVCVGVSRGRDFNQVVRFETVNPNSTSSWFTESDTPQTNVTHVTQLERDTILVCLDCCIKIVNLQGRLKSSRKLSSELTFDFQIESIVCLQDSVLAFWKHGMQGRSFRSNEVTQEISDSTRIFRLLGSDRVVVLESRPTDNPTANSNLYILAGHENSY

Columns and labels:
[1] = biological target: T1, RalB(G23V)-BirA*-HA-MAO (human) (UniProt P11234); assay: proximity labelling; MitoID: GTPase-BirA*-HA-MAO chimera on mitochondria of transiently transfected HEK293T cells, 50 uM biotin 18 h, streptavidin beads, mass spectrometry, biological triplicates; hits by WD scores and volcano plots against the GDP-locked forms
T1 sequence: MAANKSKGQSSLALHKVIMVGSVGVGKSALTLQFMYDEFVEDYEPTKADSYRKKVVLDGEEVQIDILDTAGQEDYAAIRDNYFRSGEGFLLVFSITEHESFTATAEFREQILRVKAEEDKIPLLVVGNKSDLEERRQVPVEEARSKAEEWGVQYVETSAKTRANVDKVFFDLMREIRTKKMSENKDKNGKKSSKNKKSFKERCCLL

[2] = biological target: T2, Rab9A(Q66L)-BirA*-HA-MAO (human) (UniProt P51151); assay: as above
T2 sequence: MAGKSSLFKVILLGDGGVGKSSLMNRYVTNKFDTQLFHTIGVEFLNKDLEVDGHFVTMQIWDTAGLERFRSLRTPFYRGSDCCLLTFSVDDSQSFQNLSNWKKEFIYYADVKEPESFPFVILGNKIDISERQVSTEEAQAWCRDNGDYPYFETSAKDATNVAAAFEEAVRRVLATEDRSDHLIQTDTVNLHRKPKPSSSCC

[3] = biological target: Cdc42(G12V)-BirA*-HA-MAO (human) (UniProt P60953); assay: as above
[4] = biological target: Rab18(Q67L)-BirA*-HA-MAO (human) (UniProt Q9NP72); assay: as above
[5] = biological target: Rab10(Q68L)-BirA*-HA-MAO (human) (UniProt P61026); assay: as above
[6] = biological target: Cdc42(T17N)-BirA*-HA-MAO (human) (UniProt P60953); assay: as above
[7] = biological target: Rab8A(Q67L)-BirA*-HA-MAO (human) (UniProt P61006); assay: as above
[8] = biological target: Rab33B(Q92L)-BirA*-HA-MAO (human) (UniProt Q9H082); assay: as above
[9] = biological target: Rab5A(S34N)-BirA*-HA-MAO (human) (UniProt P20339); assay: as above
[10] = biological target: RhoA(Q63L)-BirA*-HA-MAO (human) (UniProt P61586); assay: as above
[11] = biological target: Rab2A(Q65L)-BirA*-HA-MAO (human) (UniProt P61019); assay: as above
[12] = biological target: Rab6A(Q72L)-BirA*-HA-MAO (human) (UniProt P20340); assay: as above
[13] = biological target: Rab5A(Q79L)-BirA*-HA-MAO (human) (UniProt P20339); assay: as above
[14] = biological target: T3, Rab30(Q68L)-BirA*-HA-MAO (human) (UniProt Q15771); assay: as above
T3 sequence: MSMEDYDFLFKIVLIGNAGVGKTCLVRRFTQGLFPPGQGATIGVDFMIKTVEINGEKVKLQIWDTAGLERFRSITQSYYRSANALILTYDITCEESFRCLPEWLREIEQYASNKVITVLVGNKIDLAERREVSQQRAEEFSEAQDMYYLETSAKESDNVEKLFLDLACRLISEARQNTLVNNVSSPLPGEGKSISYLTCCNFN

[15] = biological target: N-Ras(G12D)-BirA*-HA-MAO (human) (UniProt P01111); assay: as above
[16] = biological target: Rab5A(Q79L) with Ser84 mutated to glutamate, BirA*-HA-MAO chimera (human) (UniProt P20339); assay: proximity labelling; MitoID with versions of Rab5A(Q79L), streptavidin precipitates immunoblotted for Rab5 effectors
[17] = biological target: Rab5A(Q79L) with Ser84 mutated to alanine, BirA*-HA-MAO chimera (human) (UniProt P20339); assay: as above
[18] = biological target: Rab5A(Q79L)-BirA*-HA-MAO (human) (UniProt P20339); assay: as above

Substance: RALGAPA1 (from UniProt Q6GYQ0 1-2036)
binding [1]: binds

Substance: MICALL1 (from UniProt Q8N3F8 1-863)
binding [2]: binds

Substance: TBC1D5 (from UniProt Q92609 1-795)
binding [4]: binds

Substance: DOCK11 (from UniProt Q5JSL3 1-2073)
binding [6]: binds

Substance: MICAL3 (from UniProt Q7RTP6 1-2002)
binding [7]: binds | binding [5]: binds

Substance: GCC2/golgin-185 (from UniProt Q8IWJ2 1-1684)
binding [8]: binds | binding [2]: binds

Substance: ARHGEF40/Solo (from UniProt Q8TER5 1-1519)
binding [3]: binds

Substance: FAM135A (from UniProt Q9P2D6 1-1515)
binding [9]: binds

Substance: ARHGAP5 (from UniProt Q13017 1-1502)
binding [10]: binds

Substance: MYO5C (from UniProt Q9NQX4 1-1742)
binding [5]: binds

Substance: PICK1 (from UniProt Q9NRD5 1-415)
binding [11]: binds

Substance: RABGAP1L (from UniProt Q5R372 1-815)
binding [12]: binds

Substance: WDR7/Rabconnectin-3β (from UniProt Q9Y4E6 1-1490)
binding [13]: binds

Substance: CIT/Citron (from UniProt O14578 1-2027)
binding [10]: binds

Substance: ARFGEF3 (from UniProt Q5TH69 1-2177)
binding [11]: binds

Substance: ALS2/alsin (from UniProt Q96Q42 1-1657)
binding [9]: binds

Substance: Huntingtin (from UniProt P42858 1-3142)
binding [13]: binds

Substance: MAP4K5 (from UniProt Q9Y4K4 1-846)
binding [7]: binds | binding [5]: binds

Substance: Rabex-5 (from UniProt Q9UJ41 1-491)
binding [9]: binds | binding [8]: binds | binding [13]: binds

Substance: SHKBP1 (from UniProt Q8TBC3 1-707)
binding [3]: binds

Substance: RAPGEF6 (from UniProt Q8TEU7 1-1601)
binding [15]: binds

Substance: ARHGAP31 (from UniProt Q2M1Z3 1-1444)
binding [3]: binds

Substance: KIF3A (from UniProt Q9Y496 1-699)
binding [5]: binds

Substance: GBF1 (from UniProt Q92538 1-1860)
binding [11]: binds

Substance: ARHGEF12/LARG (from UniProt Q9NZN5 1-1544)
binding [3]: binds

Substance: RALGAPA2 (from UniProt Q2PPJ7 1-1873)
binding [1]: binds

Substance: EEA1 (from UniProt Q15075 1-1411)
binding [16]: binds | binding [17]: binds | binding [18]: binds | binding [13]: binds

Substance: INPP5B (from UniProt P32019 1-993)
binding [11]: binds

Substance: ARHGAP32/p250GAP (from UniProt A7KAX9 1-2087)
binding [3]: binds | binding [6]: binds

Substance: DOCK9 (from UniProt Q9BZ29 1-2069)
binding [6]: binds

More lines, now with the values ahead:

binding [3]: binds
Substance: ARHGEF11/PDX-RhoGEF (from UniProt O15085 1-1522)

binding [5]: binds
Substance: EXOC6 (from UniProt Q8TAG9 1-804)

binding [3]: binds
Substance: KCTD3 (from UniProt Q9Y597 1-815)

binding [12]: binds
Substance: RABGAP1 (from UniProt Q9Y3P9 1-1069)

binding [11]: binds
Substance: RUFY1 (from UniProt Q96T51 1-708)

binding [1]: binds
Substance: EXOC2/Sec5 (from UniProt Q96KP1 1-924)

binding [11]: binds
Substance: CCDC186/CCCP-1 (from UniProt Q7Z3E2 1-898)

binding [7]: binds
Substance: MYO5A (from UniProt Q9Y4I1 1-1855)

binding [7]: binds | binding [5]: binds
Substance: OCRL (from UniProt Q01968 1-901)

binding [10]: binds
Substance: RTKN (from UniProt Q9BST9 1-563)

binding [7]: binds | binding [5]: binds
Substance: MAP4K3 (from UniProt Q8IVH8 1-894)

binding [4]: binds
Substance: NAG/NBAS (from UniProt A2RRP1 1-2371)

binding [12]: binds
Substance: p150/glued subunit of dynactin (DCNT1) (from UniProt Q14203 1-1278)

binding [6]: binds
Substance: DOCK7 (from UniProt Q96N67 1-2140)

binding [12]: binds
Substance: PDE4DIP/myomegalin (from UniProt Q5VU43 1-2346)

binding [12]: binds
Substance: ERC1 (from UniProt Q8IUD2 1-1116)

binding [14]: binds
Substance: PHLDB3 (from UniProt Q6NSJ2 1-640)
